According to publication PMC12375108:
These are yes or no findings as the source states them, for the method shown. In cells and extracts the contact can be indirect. Here binding means that the protein was enriched with, or labelled near, the bait; the list need not be complete. Tags and fused reporters may be left off the sequences shown.

Sequences of proteins named here, by UniProt entry; tags and fusion partners are left off. Residues count along the entry.
UniProt P26443, residues 54-558: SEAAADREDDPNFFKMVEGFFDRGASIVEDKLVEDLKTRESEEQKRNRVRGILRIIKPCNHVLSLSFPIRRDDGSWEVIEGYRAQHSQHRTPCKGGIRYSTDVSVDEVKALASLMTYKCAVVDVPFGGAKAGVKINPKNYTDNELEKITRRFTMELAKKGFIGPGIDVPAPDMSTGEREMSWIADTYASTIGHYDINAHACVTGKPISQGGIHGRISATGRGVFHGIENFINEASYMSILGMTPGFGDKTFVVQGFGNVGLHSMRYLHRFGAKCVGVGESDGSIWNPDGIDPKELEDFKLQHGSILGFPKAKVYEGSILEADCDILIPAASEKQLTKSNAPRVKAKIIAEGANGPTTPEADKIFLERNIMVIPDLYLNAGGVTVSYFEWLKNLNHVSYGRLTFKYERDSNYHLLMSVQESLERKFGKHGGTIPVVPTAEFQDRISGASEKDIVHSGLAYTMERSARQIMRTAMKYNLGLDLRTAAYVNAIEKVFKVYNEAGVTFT

Target: T1, GST-tagged E. coli hinT H101N (E. coli) (UniProt P0ACE7)
T1 sequence: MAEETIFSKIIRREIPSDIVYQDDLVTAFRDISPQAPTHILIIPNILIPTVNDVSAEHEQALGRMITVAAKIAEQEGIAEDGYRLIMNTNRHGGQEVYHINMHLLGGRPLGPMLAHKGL
Test: affinity purification with mass spectrometry; label-free quantitative LC-MS/MS of proteins enriched with GST-Ec hinT H101N from YUMM3.3 SelO against SelO D338A lysates; filtered for mitochondrial proteins; only the target purified

## AMPylated Glud1 (glutamate dehydrogenase), endogenous in YUMM3.3 cells expressing SelO (from UniProt P26443 54-558) (enzyme)
  binding: binds
